# The supplement of paper PMC10849652
# Amino acid sequences for entries named in this document (tags omitted). A change or cut given only in a name is not applied to a line headed by its entry.
# UniProt Q32P44: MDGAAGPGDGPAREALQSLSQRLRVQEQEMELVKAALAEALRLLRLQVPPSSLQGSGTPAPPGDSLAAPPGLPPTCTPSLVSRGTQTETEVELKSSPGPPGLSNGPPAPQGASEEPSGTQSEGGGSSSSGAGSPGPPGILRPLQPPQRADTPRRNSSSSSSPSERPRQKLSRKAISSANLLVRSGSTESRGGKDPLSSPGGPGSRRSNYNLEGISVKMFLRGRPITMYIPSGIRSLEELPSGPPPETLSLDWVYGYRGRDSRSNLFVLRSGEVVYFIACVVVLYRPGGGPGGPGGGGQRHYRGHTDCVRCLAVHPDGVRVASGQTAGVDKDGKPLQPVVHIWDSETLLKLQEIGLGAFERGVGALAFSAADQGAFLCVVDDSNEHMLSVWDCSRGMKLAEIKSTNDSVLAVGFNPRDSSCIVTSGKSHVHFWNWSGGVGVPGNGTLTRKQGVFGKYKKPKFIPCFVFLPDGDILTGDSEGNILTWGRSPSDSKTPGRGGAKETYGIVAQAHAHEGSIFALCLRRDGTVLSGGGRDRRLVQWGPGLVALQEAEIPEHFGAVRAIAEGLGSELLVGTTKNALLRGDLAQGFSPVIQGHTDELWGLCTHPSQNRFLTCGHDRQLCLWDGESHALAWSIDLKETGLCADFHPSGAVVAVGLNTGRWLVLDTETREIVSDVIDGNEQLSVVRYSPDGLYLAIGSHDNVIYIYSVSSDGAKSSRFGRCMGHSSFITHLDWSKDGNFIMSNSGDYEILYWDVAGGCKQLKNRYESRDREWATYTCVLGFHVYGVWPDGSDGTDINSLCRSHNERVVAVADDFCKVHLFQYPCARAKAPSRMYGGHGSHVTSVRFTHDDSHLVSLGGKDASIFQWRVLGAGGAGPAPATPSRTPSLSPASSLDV
# UniProt O43432, whole entry, looked up: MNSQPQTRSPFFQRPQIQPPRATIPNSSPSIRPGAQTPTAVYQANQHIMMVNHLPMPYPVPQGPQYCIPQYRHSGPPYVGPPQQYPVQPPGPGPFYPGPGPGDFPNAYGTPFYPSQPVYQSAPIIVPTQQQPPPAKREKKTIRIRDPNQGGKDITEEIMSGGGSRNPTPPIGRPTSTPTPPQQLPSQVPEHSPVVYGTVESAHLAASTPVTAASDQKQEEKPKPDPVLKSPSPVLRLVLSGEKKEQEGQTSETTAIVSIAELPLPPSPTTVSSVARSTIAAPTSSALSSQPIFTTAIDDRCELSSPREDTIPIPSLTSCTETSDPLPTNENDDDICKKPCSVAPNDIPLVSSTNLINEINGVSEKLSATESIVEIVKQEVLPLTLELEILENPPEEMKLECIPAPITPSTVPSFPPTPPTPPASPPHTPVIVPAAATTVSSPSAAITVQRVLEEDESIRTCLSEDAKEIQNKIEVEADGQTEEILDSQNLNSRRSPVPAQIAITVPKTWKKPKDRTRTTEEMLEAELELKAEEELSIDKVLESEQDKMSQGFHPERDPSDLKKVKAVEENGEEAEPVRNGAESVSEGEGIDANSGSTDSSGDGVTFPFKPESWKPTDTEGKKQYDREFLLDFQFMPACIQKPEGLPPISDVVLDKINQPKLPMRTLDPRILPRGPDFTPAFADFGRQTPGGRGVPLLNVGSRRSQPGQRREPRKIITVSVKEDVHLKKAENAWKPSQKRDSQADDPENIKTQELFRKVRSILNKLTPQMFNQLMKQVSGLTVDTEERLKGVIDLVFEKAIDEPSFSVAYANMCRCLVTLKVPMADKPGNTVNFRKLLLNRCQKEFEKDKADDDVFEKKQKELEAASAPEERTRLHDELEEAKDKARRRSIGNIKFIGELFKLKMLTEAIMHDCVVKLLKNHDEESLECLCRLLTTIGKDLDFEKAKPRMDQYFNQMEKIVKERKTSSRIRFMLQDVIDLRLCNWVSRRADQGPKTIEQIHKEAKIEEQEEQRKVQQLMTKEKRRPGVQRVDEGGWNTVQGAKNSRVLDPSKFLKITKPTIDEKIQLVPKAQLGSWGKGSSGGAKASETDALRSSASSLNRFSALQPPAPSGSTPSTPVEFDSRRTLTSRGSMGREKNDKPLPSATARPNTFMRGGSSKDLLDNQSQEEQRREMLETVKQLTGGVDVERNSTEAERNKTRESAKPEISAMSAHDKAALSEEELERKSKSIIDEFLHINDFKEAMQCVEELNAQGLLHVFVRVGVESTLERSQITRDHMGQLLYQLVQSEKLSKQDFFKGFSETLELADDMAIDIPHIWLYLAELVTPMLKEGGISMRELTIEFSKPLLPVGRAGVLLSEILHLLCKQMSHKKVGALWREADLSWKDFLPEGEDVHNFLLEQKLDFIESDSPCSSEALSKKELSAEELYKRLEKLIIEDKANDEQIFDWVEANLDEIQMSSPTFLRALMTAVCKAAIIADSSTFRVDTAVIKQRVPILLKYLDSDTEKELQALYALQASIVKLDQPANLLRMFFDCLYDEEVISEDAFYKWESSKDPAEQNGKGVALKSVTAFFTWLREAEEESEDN
# UniProt P41091, whole entry, looked up: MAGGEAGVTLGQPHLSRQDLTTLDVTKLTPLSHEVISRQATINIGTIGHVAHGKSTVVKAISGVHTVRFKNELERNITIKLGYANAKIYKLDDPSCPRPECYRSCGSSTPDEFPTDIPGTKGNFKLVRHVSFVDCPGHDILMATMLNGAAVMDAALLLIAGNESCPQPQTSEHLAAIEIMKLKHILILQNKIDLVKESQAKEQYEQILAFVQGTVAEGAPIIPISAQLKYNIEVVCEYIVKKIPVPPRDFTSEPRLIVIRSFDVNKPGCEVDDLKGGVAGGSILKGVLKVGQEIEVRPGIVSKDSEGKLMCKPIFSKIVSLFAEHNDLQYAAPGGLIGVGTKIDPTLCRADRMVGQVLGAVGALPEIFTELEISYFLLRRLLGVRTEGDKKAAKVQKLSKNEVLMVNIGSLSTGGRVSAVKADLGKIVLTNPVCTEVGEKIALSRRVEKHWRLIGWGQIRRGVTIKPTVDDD
# UniProt P55199: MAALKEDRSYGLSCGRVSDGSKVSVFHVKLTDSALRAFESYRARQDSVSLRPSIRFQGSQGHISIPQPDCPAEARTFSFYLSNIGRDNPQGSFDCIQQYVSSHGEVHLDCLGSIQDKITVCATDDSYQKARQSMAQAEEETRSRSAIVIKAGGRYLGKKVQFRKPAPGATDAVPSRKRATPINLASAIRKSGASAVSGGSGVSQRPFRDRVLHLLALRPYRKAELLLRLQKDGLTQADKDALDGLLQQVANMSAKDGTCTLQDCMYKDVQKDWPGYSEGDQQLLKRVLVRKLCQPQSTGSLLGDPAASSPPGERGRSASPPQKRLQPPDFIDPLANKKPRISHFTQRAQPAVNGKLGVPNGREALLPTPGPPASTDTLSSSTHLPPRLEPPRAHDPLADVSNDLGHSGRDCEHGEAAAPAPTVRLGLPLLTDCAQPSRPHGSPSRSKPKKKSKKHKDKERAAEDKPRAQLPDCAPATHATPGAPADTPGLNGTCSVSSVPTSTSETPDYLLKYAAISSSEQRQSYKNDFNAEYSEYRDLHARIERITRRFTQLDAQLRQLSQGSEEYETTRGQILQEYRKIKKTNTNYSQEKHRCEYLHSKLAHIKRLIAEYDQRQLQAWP
# UniProt O75822, whole entry, looked up: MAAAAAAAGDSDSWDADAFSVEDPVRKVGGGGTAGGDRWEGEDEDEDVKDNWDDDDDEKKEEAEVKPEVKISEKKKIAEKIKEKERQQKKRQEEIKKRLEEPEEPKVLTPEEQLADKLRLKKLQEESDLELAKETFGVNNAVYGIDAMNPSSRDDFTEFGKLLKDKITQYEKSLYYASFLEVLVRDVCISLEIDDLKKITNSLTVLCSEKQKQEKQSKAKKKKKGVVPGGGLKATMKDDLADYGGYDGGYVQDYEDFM
# UniProt Q5NDL2: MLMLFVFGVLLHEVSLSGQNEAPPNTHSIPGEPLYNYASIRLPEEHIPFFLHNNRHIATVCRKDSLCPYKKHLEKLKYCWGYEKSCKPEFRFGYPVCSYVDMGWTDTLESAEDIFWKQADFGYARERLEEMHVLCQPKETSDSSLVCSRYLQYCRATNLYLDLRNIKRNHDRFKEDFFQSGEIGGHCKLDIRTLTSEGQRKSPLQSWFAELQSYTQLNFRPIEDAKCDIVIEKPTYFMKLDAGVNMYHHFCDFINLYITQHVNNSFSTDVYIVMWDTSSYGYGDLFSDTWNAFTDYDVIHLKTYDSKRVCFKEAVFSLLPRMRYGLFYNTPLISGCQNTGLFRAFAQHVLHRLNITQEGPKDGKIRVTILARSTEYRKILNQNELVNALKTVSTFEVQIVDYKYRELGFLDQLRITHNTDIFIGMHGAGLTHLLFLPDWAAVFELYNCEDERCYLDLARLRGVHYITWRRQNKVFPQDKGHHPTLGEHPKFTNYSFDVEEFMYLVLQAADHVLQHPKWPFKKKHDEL
# UniProt Q9NZJ5: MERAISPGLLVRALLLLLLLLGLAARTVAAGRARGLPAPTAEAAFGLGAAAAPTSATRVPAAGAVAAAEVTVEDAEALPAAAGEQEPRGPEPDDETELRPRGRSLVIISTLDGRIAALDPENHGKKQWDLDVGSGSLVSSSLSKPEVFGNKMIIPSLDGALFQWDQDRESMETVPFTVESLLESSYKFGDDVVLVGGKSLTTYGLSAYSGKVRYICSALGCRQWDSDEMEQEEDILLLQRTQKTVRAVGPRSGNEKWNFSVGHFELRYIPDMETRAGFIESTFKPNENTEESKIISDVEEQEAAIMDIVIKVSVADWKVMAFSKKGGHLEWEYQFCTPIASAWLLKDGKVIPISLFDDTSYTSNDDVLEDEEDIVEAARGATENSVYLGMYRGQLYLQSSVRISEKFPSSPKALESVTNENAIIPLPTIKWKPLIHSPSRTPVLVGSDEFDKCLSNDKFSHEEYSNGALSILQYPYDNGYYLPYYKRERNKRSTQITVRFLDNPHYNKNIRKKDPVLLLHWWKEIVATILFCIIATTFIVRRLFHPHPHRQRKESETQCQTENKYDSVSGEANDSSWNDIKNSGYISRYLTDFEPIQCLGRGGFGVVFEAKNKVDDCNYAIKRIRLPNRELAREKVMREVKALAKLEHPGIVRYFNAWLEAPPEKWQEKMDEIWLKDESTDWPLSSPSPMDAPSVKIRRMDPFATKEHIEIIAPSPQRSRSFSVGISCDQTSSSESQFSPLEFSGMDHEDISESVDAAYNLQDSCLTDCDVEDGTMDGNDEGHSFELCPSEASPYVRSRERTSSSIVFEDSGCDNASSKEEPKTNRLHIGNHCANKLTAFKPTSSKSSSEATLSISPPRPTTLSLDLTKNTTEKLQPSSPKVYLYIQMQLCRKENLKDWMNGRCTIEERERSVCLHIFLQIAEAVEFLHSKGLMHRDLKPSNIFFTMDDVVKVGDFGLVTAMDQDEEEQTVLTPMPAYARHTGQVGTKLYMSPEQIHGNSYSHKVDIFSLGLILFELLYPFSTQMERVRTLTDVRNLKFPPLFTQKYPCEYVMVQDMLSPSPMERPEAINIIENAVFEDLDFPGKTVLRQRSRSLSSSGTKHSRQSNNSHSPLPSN
# UniProt P19419: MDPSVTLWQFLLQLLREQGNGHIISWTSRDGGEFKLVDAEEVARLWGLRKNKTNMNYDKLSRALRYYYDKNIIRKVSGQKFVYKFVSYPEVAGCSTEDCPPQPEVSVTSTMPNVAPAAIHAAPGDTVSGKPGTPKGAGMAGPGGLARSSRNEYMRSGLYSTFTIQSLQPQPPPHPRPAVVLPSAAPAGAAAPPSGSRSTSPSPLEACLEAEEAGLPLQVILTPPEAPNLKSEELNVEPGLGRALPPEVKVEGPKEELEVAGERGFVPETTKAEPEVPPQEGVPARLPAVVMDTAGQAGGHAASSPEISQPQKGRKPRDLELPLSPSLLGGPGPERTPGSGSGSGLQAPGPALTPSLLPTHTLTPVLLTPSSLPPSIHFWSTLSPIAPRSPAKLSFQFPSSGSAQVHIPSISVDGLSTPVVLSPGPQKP
# UniProt Q96C92: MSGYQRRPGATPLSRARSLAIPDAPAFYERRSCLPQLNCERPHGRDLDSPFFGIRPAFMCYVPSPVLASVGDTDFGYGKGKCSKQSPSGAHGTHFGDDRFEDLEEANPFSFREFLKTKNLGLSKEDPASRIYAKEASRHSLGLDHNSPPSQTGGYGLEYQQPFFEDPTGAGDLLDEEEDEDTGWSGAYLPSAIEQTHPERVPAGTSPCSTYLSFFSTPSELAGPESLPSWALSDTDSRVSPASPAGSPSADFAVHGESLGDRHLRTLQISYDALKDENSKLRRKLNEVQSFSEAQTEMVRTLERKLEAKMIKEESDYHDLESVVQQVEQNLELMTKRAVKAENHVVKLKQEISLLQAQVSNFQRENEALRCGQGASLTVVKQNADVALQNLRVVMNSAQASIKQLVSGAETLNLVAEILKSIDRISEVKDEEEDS
# UniProt Q9Y6B2: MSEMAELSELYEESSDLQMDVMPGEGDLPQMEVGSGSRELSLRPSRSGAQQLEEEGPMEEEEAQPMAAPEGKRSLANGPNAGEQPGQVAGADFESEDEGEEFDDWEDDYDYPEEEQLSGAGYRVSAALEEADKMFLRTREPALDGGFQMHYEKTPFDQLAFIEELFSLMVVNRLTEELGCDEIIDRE
# The list shows a part of the results.
# How the values were obtained:
# Test in all cases: log2 fold change, soluble protein after heating vs DMSO (PISA); higher = thermal stabilisation; K562 cells, 10 uM, 30 min; active = over 0.2 and 3.5 SD of the protein, either way, in both replicates (recomputed)
# [1] = compound: CS(=O)(=O)c1ccc(-c2cnc(N)c(C(=O)Nc3ccccc3)n2)cc1
# Outline: (§1)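 Quantification of soluble protein used TMTpro 16plex LC-MS/MS, with channel sums equalised. Samples were the supernatant after 21,000xg for 90 min of pooled aliquots from K562 cells (2×10^6 cells/mL) treated with 10 μM compound for 30 min, heated for 3 min over 48°C-58°C, and extracted in PBS with 0.5% NP-40 at 4°C. Values, from duplicates, describe thermal stability against control samples on a log2 fold-change scale.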
# [2] = compound: C[C@@H](Oc1cc(-c2cnn(C3CCNCC3)c2)cnc1N)c1c(Cl)ccc(F)c1Cl [crizotinib]
# Outline: as §1
# [3] = compound: C[C@@H]1COCCN1C2=NC(=NC(=C2)C3(CC3)S(=O)(=O)C)C4=C5C=CNC5=CC=C4
# Outline: as §1
# [4] = compound: C[C@H](C1=CC=C(C=C1)C(=O)NC2=C3C=CNC3=NC=C2)N
# Outline: as §1
# [5] = compound: C[C@H](Nc1ncnc2nc[nH]c12)c1cc2cccc(Cl)c2c(=O)n1-c1ccccc1 [duvelisib]
# Outline: as §1
# [6] = compound: Cc1cc(Nc2cc(CN3CCOCC3)c3nc(C)c(Cc4ccc(Cl)cc4F)n3n2)n[nH]1 [gandotinib]
# Outline: as §1
# [7] = compound: Cc1cc(Nc2cc(N3CCN(C)CC3)nc(Sc3ccc(NC(=O)C4CC4)cc3)n2)n[nH]1 [tozasertib]
# Outline: as §1
# [8] = compound: Cc1cc(SCc2sc(-c3ccc(C(F)(F)F)cc3)nc2C)ccc1OCC(=O)O
# Outline: as §1
# [9] = compound: Cc1ccc(-n2nc(C(C)(C)C)cc2NC(=O)Nc2ccc(OCCN3CCOCC3)c3ccccc23)cc1 [doramapimod]
# Outline: as §1
# [10] = compound: Cc1ccc(C(=O)N(CCCN)[C@@H](c2nc3cc(Cl)ccc3c(=O)n2Cc2ccccc2)C(C)C)cc1 [ispinesib]
# Outline: as §1
Target,log2 fold change [1],log2 fold change [2],log2 fold change [3],log2 fold change [4],log2 fold change [5],log2 fold change [6],log2 fold change [7],log2 fold change [8],log2 fold change [9],log2 fold change [10]
ENO3 (UniProt P13929),inactive: -0.049,inactive: 0.027,inactive: -0.004,inactive: -0.129,inactive: 0.088,inactive: -0.003,inactive: 0.006,inactive: 0.068,inactive: -0.113,inactive: 0.082
EIF2S2 (UniProt P20042),inactive: -0.067,inactive: 0.003,inactive: -0.214,inactive: 0.087,inactive: -0.03,inactive: -0.003,inactive: -0.024,inactive: -0.024,inactive: 0.036,inactive: -0.096
EIF3I (UniProt Q13347),inactive: 0.022,inactive: -0.137,inactive: -0.019,inactive: 0.143,inactive: 0.033,inactive: -0.01,inactive: 0.063,inactive: 0.146,inactive: 0.023,inactive: -0.122
EML3 isoform 2 (UniProt Q32P44),inactive: 0.074,inactive: -0.172,inactive: -0.26,inactive: 0.103,inactive: -0.004,inactive: 0.128,inactive: -0.038,inactive: 0.062,inactive: 0.154,inactive: -0.236
ELAC1 (UniProt Q9H777),inactive: -0.045,inactive: 0.011,inactive: -0.13,inactive: -0.137,,inactive: -0.021,,inactive: 0.004,inactive: 0.007,
ELP2 isoform 6 (UniProt Q6IA86),inactive: 0.009,inactive: -0.01,inactive: 0.03,inactive: -0.03,inactive: 0.031,inactive: -0.039,inactive: -0.005,inactive: 0.052,inactive: -0.022,inactive: 0.061
ENPP3 (UniProt O14638),inactive: -0.087,inactive: 0.009,inactive: -0.001,inactive: 0.063,inactive: -0.171,inactive: -0.11,,inactive: 0.051,inactive: -0.264,inactive: -0.096
EIF4G3 isoform 3 (UniProt O43432),inactive: 0.053,inactive: -0.106,,inactive: 0.074,,,,inactive: 0.075,inactive: 0.013,inactive: -0.02
EFL1 (UniProt Q7Z2Z2),inactive: 0.02,inactive: -0.055,inactive: 0.074,inactive: 0.016,,inactive: -0.056,,inactive: 0.029,inactive: -0.013,inactive: -0.018
ENTPD4 (UniProt Q9Y227),inactive: -0.044,inactive: -0.041,inactive: -0.088,,,inactive: 0.069,inactive: -0.045,,inactive: 0.094,
EIF2S3 (UniProt P41091),inactive: -0.071,inactive: -0.014,active: -0.219,inactive: 0.053,,inactive: 0.077,,inactive: 0.014,inactive: 0.038,inactive: -0.088
ENO2 (UniProt U3KQQ1),inactive: 0.244,inactive: 0.169,,,,inactive: 0.358,,,inactive: -0.115,
EFCAB14 (UniProt O75071),inactive: 0.045,active: -0.301,inactive: 0.083,inactive: 0.041,,inactive: -0.009,,inactive: -0.006,inactive: -0.01,inactive: -0.004
EHD2 (UniProt Q9NZN4),inactive: 0,inactive: -0.068,inactive: 0.077,inactive: -0.008,,inactive: -0.028,,inactive: 0.002,inactive: 0,inactive: -0.007
ELL (UniProt P55199),inactive: -0.073,,inactive: 0.13,inactive: 0.031,inactive: -0.03,inactive: -0.036,inactive: -0.029,inactive: -0.222,,inactive: -0.097
EIF3J isoform 2 (UniProt O75822),inactive: 0.035,inactive: 0.049,inactive: -0.043,,,,,inactive: -0.038,inactive: 0.011,
EIF4E2 (UniProt O60573),inactive: 0.151,inactive: -0.018,inactive: -0.027,inactive: 0.085,,,,inactive: 0.07,inactive: -0.069,inactive: -0.087
ELF1 (UniProt P32519),inactive: 0.093,inactive: -0.06,inactive: -0.006,inactive: -0.007,,,,inactive: 0.057,inactive: -0.039,inactive: -0.038
EEF1B2 (UniProt P24534),inactive: 0.003,inactive: -0.018,inactive: -0.073,inactive: 0.092,,inactive: -0.043,,inactive: 0.013,inactive: -0.065,inactive: -0.024
EFHD1 (UniProt Q9BUP0),inactive: 0.038,,inactive: -0.178,inactive: 0.055,inactive: -0.04,inactive: 0.128,inactive: -0.09,inactive: -0.168,,

Target,log2 fold change [1],log2 fold change [2],log2 fold change [3],log2 fold change [4],log2 fold change [5],log2 fold change [6],log2 fold change [7],log2 fold change [8],log2 fold change [9],log2 fold change [10]
EEF1AKNMT (UniProt Q8N6R0),inactive: -0.011,inactive: -0.059,inactive: 0.006,inactive: 0.111,,inactive: -0.09,,inactive: 0.153,inactive: 0.077,inactive: -0.072
EIF4A1 (UniProt P60842),inactive: -0.055,inactive: -0.058,inactive: 0.03,inactive: -0.015,,inactive: -0.206,,inactive: 0.047,inactive: 0.025,inactive: -0.11
ELOVL6 (UniProt Q9H5J4),inactive: -0.072,inactive: -0.231,,inactive: 0.029,inactive: 0.141,,inactive: -0.117,inactive: -0.11,inactive: 0.009,inactive: -0.236
ELOVL5 isoform 2 (UniProt Q9NYP7),inactive: 0.038,,inactive: 0.048,inactive: -0.004,,inactive: -0.34,,inactive: 0.082,,inactive: -0.311
EIF3J (UniProt O75822),inactive: -0.024,inactive: -0.012,inactive: 0.009,inactive: -0.035,,inactive: -0.157,,inactive: 0.005,inactive: -0.022,inactive: 0.099
"EED, A0A5F9ZI63",inactive: -0.074,inactive: 0.045,inactive: -0.047,inactive: 0.007,,inactive: 0.07,,inactive: -0.013,inactive: 0.028,inactive: 0.019
EFR3A (UniProt Q14156),inactive: -0.055,,inactive: 0.006,,,,,,,
EIF1B (UniProt O60739),inactive: 0.063,inactive: 0.147,inactive: 0.066,,,,,,inactive: -0.08,inactive: 0.192
ENTPD6 (UniProt O75354),inactive: 0.144,,inactive: 0.04,inactive: 0.107,inactive: 0.029,inactive: 0.087,inactive: -0.167,inactive: -0.019,,inactive: -0.117
EOGT (UniProt Q5NDL2),inactive: 0.052,inactive: 0,inactive: -0.054,inactive: 0.069,,inactive: -0.003,,inactive: -0.137,inactive: 0.068,inactive: -0.006
EGR1 (UniProt P18146),inactive: 0.063,,inactive: 0.259,inactive: -0.518,,inactive: -0.536,,,,inactive: 0.36
EEF1A1 (UniProt P68104),inactive: 0.081,inactive: 0.001,inactive: -0.022,inactive: -0.474,,,,inactive: -0.004,inactive: -0.062,inactive: 0.115
ENTPD7 (UniProt Q9NQZ7),inactive: 0.256,inactive: 0.084,inactive: -0.037,,,,,inactive: 0.014,inactive: 0.025,
EIF4E isoform 2 (UniProt P06730),inactive: 0.198,inactive: 0.165,active: 0.4,inactive: -0.099,,inactive: -0.006,,inactive: -0.02,inactive: -0.045,inactive: 0.159
EFEMP1 (UniProt Q12805),inactive: -0.071,inactive: -0.126,,inactive: -0.141,inactive: 0.116,inactive: -0.186,inactive: -0.081,inactive: -0.323,inactive: -0.032,inactive: 0.287
EEF1AKMT4-ECE2 (UniProt P0DPD8),inactive: -0.652,inactive: 0.056,,,inactive: 0.442,,,inactive: 0.202,inactive: 0.105,
ELMO1 (UniProt Q92556),inactive: 0.06,inactive: -0.019,inactive: 0,,,,,inactive: -0.043,inactive: 0.033,inactive: -0.299
EEF1D isoform 2 (UniProt P29692),inactive: 0.043,inactive: 0.004,inactive: -0.028,inactive: 0.066,,inactive: -0.057,,inactive: 0.04,inactive: 0.026,inactive: -0.055
ELOVL1 (UniProt Q9BW60),inactive: 0.082,inactive: -0.182,inactive: -0.065,inactive: -0.14,,inactive: -0.206,,inactive: 0.078,inactive: -0.082,inactive: -0.297
EHBP1L1 (UniProt Q8N3D4),inactive: 0.034,inactive: -0.01,inactive: -0.005,inactive: 0.012,,inactive: -0.206,,inactive: 0.115,inactive: -0.018,inactive: -0.047

Target,log2 fold change [1],log2 fold change [2],log2 fold change [3],log2 fold change [4],log2 fold change [5],log2 fold change [6],log2 fold change [7],log2 fold change [8],log2 fold change [9],log2 fold change [10]
EML4 (UniProt Q9HC35),inactive: 0.012,,inactive: -0.015,inactive: 0.286,inactive: -0.012,inactive: 0.024,inactive: -0.043,inactive: 0.135,inactive: 0.158,inactive: -0.154
EGFL7 (UniProt Q9UHF1),inactive: -0.051,,inactive: -0.21,,,inactive: 0.216,,,,
EIF2B4 (UniProt Q9UI10),,inactive: -0.07,inactive: 0.048,inactive: 0.017,inactive: -0.043,inactive: 0.204,inactive: -0.098,inactive: 0.188,inactive: -0.012,
EIF2AK3 (UniProt Q9NZJ5),,inactive: -0.062,inactive: 0.181,inactive: 0.109,,inactive: -0.113,,inactive: 0.188,inactive: 0.032,
EP400P1 isoform 6 (UniProt Q6ZTU2),,,,,inactive: 0.303,,inactive: 0.197,inactive: 0.021,,inactive: 0.054
EIF5A (UniProt I3L397),,,,,,,,,,inactive: -0.189
EPB41 isoform 4 (UniProt P11171),,,,,,inactive: -0.123,inactive: -0.047,,,inactive: 0.082
ELOA (UniProt Q14241),,,inactive: -0.088,,,inactive: 0.208,,,,
ENPP2 isoform 2 (UniProt Q13822),,,inactive: 0.08,,,,,,,
ELK1 (UniProt P19419),,inactive: 0.024,,,,inactive: -0.285,,,inactive: 0.167,
"EPB41, A0A2R8Y783",,inactive: -0.091,,,inactive: 0.002,,,inactive: 0.179,inactive: -0.1,
ENTR1 (UniProt Q96C92),,,,,,,,inactive: 0.048,,
EIF4G1 (UniProt Q04637),,,,inactive: 0.184,,inactive: -0.082,,inactive: 0.227,,
EIF4H isoform 2 (UniProt Q15056),,,,,,inactive: -0.55,,,,
ENAH (UniProt Q8N8S7),,,,,,inactive: -0.056,,,,
EIF3I (UniProt Q5TFK1),,inactive: -0.024,,inactive: -0.036,inactive: 0,,inactive: -0.054,inactive: -0.01,inactive: 0.066,inactive: 0.023
ENTPD3 (UniProt O75355),,inactive: -0.043,,,,,,,inactive: 0.578,
EID1 (UniProt Q9Y6B2),inactive: -0.14,,inactive: -0.424,,,inactive: 0.275,,,,
EP400 (UniProt Q96L91),inactive: -0.092,,,inactive: 0.186,,inactive: -0.007,,,,

# A stretch of the results above, as a working copy:
Target,log2 fold change [1],log2 fold change [2],log2 fold change [3],log2 fold change [4],log2 fold change [5],log2 fold change [6],log2 fold change [7],log2 fold change [8],log2 fold change [9],log2 fold change [10]
EIF5A (UniProt I3L397),,,,,,,,,,inactive: -0.189
EPB41 isoform 4 (UniProt P11171),,,,,,inactive: -0.123,inactive: -0.047,,,inactive: 0.082
ELOA (UniProt Q14241),,,inactive: -0.088,,,inactive: 0.208,,,,
